{"sequences": {"note": "Protein sequences, listed by entry. Tags and fused reporters are not part of them.", "UniProt O88522": "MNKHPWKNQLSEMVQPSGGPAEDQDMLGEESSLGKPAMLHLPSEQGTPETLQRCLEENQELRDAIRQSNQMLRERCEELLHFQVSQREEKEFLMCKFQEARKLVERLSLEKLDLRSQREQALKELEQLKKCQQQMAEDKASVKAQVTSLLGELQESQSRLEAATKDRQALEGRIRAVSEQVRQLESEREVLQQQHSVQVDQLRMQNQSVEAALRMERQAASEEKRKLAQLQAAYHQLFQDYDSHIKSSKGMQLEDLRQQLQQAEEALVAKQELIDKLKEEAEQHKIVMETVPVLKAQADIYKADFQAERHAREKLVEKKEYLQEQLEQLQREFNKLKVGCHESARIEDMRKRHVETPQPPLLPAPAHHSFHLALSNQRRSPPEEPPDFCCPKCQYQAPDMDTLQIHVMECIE"}, "source": "paper PMC3694847", "binders": {"B1": {"name": "endogenous CYLD (MEF cells) (enzyme, UniProt Q80TQ2-2 1-955)", "chain": "MSSGLWSQEKVTSPYWEERIFYLLLQECSVTDKQTQKLLKVPKGSIGQYIQDRSVGHSRVPSTKGKKNQIGLKILEQPHAVLFVDEKDVVEINEKFTELLLAITNCEERLSLFRNRLRLSKGLQVDVGSPVKVQLRSGEEKFPGVVRFRGPLLAERTVSGIFFGVELLEEGRGQGFTDGVYQGKQLFQCDEDCGVFVALDKLELIEDDDNGLESDFAGPGDTMQVEPPPLEINSRVSLKVGESTESGTVIFCDVLPGKESLGYFVGVDMDNPIGNWDGRFDGVQLCSFASVESTILLHINDIIPALSDSVTQERRPPKLAFMSRGVGDKGSSSHNKPKVTGSTSDPGSRNRSELFYTLNGSSVDSQQSKSKNPWYIDEVAEDPAKSLTEMSSDFGHSSPPPQPPSMNSLSSENRFHSLPFSLTKMPNTNGSMAHSPLSLSVQSVMGELNSTPVQESPPLPISSGNAHGLEVGSLAEVKENPPFYGVIRWIGQPPGLSDVLAGLELEDECAGCTDGTFRGTRYFTCALKKALFVKLKSCRPDSRFASLQPVSNQIERCNSLAFGGYLSEVVEENTPPKMEKEGLEIMIGKKKGIQGHYNSCYLDSTLFCLFAFSSALDTVLLRPKEKNDIEYYSETQELLRTEIVNPLRIYGYVCATKIMKLRKILEKVEAASGFTSEEKDPEEFLNILFHDILRVEPLLKIRSAGQKVQDCNFYQIFMEKNEKVGVPTIQQLLEWSFINSNLKFAEAPSCLIIQMPRFGKDFKLFKKIFPSLELNITDLLEDTPRQCRICGGLAMYECRECYDDPDISAGKIKQFCKTCSTQVHLHPRRLNHSYHPVSLPKDLPDWDWRHGCIPCQKMELFAVLCIETSHYVAFVKYGKDDSAWLFFDSMADRDGGQNGFNIPQVTPCPEVGEYLKMSLEDLHSLDSRRIQGCARRLLCDAYMCMYQSPTMSLYK"}}, "key": {"[1]": {"target": "endogenous NEMO (MEF cells) (mouse (endogenous in MEF)) (UniProt O88522)", "assay": "co-IP; endogenous proteins; MEF lysates after mock or LPS (1 µg/ml) stimulation; IP with anti-NEMO antibody or IgG, blot with anti-CYLD; control cells"}, "[2]": {"target": "endogenous NEMO (MEF cells) (mouse (endogenous in MEF)) (UniProt O88522)", "assay": "co-IP; endogenous proteins; MEF lysates after mock or LPS (1 µg/ml) stimulation; IP with anti-NEMO antibody or IgG, blot with anti-CYLD; cells with SENP6 knocked down"}}, "note": "These are yes or no findings as the source states them, for the method shown. Binding seen in cells or lysates may run through a third protein. Some binding calls cover weakened binding; strength is not graded here.", "data": [{"binder": "B1", "values": [{"measurement": "binding", "setting": "[1]", "result": "binds"}, {"measurement": "binding", "setting": "[2]", "result": "no binding (condition: SENP6 knock-down by siRNA)"}]}]}
